Source: patent US9963674B2, “Age-modified cells and methods for making age-modified cells” (Memorial Sloan-Kettering Cancer Center, priority 2013, dated 2018)

System: iPSC-derived mDA neuron grafts in NOD-SCID IL2Rgc-null mice
Assay: Ultrastructural analysis of grafts by transmission electron microscopy
Format: in vivo
Details: six months, PINK1 grafts
Protocol: Procedures were performed according to (Milner et al., Methods Mol Biol 793:23-59 (2011)). Briefly, six months following transplantation of human iPSC-derived mDA neurons, mice were overdosed with 150 mg/kg sodium pentobarbital intraperitoneally. The brains were fixed by aortic arch perfusion sequentially with normal saline (0.9%) containing 1000 units/ml of Heparin, 50 ml of 3.75% acrolein and 2% paraformaldehyde in 0.1 M phosphate buffer (PB, pH 7.4), and 200 ml of 2% PFA in PB. The brains were removed and post-fixed with 1.87% acrolein/2% PFA in PB for 30 minutes at room temperature. Coronal tissue blocks were sectioned (40 μm) on a vibrating microtome (Leica Microsystems, Deerfield, Ill.). Selected sections containing the xenograft were pretreated in 1% sodium borohydride. Non-specific binding was blocked with 0.5% BSA 0.1 M Tris-saline (TS, pH 7.6). Primary antibodies (see Table S4) were diluted in 0.1% BSA in TS and incubated overnight at 4° C. Sections were incubated with a biotinylated secondary antibody (Jackson ImmunoResearch, West Grove, Pa.) for 30 minutes at room temperature. […] The number of TH-immunogold particles per μm^2 in 25 dendrites per group and the area (μm^2) quantification of 25 mitochondria per group were performed using ImageJ.

Substance “GFP-progerin: progerin (truncated lamin A) fused to GFP, SEQ ID No. 2, overexpressed via modified-RNA or hSyn lentivirus” has a mitochondria area of 0.167 μm^2.
